Measurements published in the supplement of paper PMC10849652.
The other results are listed elsewhere or left out.

By UniProt entry, the sequences of proteins in these tests, tags left out. Where a name states a change or a piece, a line headed by the entry shows the natural chain unless it says otherwise.
UniProt Q86YB8: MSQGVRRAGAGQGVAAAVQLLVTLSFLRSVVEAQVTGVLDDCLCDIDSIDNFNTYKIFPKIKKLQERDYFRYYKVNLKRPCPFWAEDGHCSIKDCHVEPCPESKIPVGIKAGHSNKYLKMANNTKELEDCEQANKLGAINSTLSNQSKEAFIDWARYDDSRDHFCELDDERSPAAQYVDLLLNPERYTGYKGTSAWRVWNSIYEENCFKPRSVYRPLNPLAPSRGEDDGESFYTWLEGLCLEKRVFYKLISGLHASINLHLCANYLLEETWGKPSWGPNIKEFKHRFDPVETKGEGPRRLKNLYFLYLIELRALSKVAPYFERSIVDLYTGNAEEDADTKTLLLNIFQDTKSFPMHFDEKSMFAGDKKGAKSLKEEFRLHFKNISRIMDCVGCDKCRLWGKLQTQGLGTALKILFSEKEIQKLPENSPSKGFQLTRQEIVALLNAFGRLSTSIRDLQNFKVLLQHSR
UniProt Q96RQ1: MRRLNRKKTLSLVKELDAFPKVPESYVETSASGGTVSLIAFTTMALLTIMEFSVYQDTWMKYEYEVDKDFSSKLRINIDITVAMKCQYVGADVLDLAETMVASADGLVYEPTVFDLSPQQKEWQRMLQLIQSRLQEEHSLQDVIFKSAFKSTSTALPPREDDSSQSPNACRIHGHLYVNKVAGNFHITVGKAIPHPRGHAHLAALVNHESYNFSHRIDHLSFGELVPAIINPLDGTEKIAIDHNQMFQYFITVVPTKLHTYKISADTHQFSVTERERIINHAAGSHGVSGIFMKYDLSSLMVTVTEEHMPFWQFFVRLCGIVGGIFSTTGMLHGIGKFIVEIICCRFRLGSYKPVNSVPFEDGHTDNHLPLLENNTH
UniProt Q01469, whole entry, looked up: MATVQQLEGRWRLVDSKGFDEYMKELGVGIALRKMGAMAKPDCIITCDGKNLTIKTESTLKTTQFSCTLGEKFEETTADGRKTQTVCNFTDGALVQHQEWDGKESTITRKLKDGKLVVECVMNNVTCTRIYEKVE
UniProt Q9UPT5: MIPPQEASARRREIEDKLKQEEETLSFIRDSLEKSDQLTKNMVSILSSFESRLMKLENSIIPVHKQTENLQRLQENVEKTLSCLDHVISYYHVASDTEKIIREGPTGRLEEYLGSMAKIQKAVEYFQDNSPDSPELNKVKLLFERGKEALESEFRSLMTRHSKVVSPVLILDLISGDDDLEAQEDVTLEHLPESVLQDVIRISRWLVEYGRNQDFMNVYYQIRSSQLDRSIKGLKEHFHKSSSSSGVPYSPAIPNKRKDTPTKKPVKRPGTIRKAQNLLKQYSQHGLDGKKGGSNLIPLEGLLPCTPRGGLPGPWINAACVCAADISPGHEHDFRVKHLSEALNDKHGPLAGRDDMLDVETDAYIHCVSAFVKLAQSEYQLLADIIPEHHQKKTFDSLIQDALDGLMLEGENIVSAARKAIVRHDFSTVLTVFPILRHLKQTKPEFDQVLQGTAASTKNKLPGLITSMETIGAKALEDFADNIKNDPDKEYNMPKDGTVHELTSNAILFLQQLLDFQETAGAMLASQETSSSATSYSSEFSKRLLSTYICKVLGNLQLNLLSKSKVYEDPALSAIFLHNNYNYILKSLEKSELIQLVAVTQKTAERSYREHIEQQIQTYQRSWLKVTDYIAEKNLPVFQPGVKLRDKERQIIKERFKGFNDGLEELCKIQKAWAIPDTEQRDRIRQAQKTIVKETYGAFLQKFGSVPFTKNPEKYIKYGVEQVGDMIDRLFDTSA
UniProt Q96E09: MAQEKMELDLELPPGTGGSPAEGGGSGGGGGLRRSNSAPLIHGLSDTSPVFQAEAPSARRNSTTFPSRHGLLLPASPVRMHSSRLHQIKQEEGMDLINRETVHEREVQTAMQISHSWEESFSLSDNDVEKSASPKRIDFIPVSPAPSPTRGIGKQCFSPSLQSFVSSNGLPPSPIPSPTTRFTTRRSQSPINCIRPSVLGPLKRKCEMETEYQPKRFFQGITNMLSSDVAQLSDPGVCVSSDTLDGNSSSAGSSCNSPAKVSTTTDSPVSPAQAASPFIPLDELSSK
UniProt O94905: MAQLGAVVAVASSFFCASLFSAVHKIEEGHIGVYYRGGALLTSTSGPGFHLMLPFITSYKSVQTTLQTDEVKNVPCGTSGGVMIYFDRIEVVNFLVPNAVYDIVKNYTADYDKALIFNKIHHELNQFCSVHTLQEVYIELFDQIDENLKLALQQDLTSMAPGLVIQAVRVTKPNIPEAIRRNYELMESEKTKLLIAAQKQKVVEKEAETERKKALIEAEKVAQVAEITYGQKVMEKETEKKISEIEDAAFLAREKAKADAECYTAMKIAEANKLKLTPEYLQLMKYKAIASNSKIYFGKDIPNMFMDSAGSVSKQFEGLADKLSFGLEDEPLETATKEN
UniProt Q9UKR5: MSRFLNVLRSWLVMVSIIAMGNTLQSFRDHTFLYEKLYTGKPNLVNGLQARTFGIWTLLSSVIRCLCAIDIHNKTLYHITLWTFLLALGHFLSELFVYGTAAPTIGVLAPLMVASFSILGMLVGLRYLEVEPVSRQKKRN
UniProt Q9NSI2: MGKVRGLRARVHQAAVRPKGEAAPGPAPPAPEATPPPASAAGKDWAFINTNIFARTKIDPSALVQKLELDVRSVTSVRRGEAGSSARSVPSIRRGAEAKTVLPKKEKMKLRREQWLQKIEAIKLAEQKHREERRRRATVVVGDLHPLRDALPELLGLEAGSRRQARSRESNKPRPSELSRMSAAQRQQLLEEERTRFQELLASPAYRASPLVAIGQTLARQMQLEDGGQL
UniProt P12259: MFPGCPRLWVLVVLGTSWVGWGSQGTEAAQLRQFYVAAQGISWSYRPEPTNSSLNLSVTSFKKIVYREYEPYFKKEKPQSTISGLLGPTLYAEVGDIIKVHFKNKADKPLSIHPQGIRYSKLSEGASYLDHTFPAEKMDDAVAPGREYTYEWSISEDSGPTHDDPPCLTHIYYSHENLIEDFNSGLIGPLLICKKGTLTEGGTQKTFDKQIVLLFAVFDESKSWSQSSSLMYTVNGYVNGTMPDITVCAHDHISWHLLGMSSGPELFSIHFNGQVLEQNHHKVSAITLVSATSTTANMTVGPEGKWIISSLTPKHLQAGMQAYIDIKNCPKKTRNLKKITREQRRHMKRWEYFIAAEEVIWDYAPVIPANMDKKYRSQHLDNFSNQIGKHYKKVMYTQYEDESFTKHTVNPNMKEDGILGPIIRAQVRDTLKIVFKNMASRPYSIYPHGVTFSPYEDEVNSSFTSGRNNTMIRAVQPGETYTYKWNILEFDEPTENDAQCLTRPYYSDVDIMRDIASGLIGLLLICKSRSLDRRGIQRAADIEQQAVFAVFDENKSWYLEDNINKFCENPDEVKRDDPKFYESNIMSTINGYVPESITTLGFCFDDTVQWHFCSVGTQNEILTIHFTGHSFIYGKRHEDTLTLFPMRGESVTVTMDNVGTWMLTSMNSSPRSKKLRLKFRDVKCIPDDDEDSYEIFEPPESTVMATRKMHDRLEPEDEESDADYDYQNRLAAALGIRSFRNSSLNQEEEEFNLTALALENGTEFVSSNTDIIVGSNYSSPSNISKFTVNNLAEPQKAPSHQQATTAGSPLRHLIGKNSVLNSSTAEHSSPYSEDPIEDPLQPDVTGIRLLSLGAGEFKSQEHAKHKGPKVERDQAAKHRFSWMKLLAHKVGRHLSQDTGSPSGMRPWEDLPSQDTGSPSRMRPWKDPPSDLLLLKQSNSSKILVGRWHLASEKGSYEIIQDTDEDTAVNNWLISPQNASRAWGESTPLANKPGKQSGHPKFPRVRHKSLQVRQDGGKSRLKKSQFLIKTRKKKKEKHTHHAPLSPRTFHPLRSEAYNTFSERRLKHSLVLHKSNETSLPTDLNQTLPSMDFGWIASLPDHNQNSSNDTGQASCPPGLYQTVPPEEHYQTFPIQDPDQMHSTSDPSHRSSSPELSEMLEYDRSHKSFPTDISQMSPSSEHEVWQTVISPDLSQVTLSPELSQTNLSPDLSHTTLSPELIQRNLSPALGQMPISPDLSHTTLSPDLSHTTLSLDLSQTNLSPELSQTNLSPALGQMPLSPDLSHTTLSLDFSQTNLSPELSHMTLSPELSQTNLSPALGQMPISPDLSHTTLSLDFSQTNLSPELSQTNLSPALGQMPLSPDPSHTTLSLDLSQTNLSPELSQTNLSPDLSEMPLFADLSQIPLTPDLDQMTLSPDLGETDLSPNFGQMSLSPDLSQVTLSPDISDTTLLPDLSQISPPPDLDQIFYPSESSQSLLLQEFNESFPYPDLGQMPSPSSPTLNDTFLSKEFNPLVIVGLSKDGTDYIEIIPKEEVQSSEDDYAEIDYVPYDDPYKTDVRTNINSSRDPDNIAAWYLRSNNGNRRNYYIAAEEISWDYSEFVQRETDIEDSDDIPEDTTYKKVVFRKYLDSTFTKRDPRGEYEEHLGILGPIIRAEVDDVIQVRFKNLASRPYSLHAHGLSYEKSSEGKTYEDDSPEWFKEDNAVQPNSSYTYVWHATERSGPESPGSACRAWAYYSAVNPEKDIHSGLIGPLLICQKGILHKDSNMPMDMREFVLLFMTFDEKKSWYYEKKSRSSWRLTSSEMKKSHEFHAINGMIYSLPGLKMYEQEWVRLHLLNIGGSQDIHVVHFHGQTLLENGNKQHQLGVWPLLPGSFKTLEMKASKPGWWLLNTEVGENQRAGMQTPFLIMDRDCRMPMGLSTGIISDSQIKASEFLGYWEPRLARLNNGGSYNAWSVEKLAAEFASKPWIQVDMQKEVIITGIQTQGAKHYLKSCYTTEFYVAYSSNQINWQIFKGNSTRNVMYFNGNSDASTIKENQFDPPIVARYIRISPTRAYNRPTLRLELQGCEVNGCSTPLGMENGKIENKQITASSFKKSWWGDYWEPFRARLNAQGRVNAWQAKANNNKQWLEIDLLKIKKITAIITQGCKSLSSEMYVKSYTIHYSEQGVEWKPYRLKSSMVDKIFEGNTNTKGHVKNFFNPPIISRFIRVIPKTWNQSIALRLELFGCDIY
UniProt Q96DF8: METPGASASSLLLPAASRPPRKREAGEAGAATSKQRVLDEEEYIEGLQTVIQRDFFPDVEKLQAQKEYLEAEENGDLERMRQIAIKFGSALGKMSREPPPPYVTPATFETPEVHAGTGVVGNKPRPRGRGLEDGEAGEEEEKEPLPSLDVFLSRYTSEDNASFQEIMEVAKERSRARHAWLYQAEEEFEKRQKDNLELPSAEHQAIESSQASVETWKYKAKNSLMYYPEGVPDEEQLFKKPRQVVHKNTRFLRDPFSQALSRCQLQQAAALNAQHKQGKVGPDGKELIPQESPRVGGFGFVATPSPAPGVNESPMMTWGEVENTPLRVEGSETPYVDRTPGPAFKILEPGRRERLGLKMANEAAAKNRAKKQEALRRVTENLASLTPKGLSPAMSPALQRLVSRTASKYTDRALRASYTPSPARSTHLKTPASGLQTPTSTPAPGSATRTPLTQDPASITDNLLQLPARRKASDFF
UniProt Q5W0V3: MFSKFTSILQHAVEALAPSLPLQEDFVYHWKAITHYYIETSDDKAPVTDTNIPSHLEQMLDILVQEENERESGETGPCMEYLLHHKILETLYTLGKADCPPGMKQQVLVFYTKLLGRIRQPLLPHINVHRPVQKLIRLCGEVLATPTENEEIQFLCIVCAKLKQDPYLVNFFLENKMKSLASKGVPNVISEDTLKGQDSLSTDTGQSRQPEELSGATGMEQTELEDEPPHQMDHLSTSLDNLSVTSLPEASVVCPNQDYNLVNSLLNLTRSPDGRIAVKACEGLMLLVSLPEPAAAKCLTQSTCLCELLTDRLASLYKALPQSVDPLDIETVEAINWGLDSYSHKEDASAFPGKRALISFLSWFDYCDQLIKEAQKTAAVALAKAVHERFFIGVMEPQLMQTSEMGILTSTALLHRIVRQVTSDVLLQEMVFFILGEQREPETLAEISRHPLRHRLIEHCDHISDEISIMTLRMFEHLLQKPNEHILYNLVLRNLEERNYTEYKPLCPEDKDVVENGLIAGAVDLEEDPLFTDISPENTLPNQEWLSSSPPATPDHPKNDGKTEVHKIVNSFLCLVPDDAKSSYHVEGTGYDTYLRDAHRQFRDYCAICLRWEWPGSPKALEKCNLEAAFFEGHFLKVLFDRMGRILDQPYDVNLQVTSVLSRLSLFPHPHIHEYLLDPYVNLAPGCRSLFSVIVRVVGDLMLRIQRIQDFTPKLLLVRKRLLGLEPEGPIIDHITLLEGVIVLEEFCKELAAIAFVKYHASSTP
UniProt Q6P2I3: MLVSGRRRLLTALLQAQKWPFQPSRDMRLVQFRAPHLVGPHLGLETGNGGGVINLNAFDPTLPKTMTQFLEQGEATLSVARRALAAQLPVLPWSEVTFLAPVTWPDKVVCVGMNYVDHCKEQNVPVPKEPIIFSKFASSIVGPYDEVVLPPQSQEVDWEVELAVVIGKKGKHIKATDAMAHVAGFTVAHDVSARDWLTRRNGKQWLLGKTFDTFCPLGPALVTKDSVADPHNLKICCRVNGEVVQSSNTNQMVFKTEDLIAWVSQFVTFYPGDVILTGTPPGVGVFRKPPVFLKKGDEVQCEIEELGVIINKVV

Experiments:
Assay in all cases: log2 fold change, soluble protein after heating vs DMSO (PISA); higher = thermal stabilisation; K562 cells, 10 uM, 30 min; active = over 0.2 and 3.5 SD of the protein, either way, in both replicates (recomputed)
[1] = compound: CC[C@@H]1C(=O)N(C)c2cnc(Nc3ccc(C(=O)NC4CCN(C)CC4)cc3OC)nc2N1C1CCCC1
Procedure, shortened: (§1)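 K562 cells at 2×10^6 cells/mL were given 10 μM compound for 30 min. Aliquots then went through 3 min of heating across 48°C-58°C, were pooled, and were extracted in PBS with 0.5% NP-40 at 4°C, and the supernatant after 21,000xg for 90 min was quantified by TMTpro 16plex LC-MS/MS with channel sums equalised. Thermal stability relative to control samples, from duplicates, is given as log2 fold change.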

volasertib = compound: CC[C@@H]1C(=O)N(C)c2cnc(Nc3ccc(C(=O)N[C@H]4CC[C@H](N5CCN(CC6CC6)CC5)CC4)cc3OC)nc2N1C(C)C [volasertib]
Procedure, shortened: as §1

[2] = compound: CC[C@H](C)N1C=C(C2=C(C=C(C=C21)C3=CN=C(C=C3)N4CCNCC4)C(=O)NCC5=C(C=C(NC5=O)C)C)C
Procedure, shortened: as §1

epoxomicin = compound: CC[C@H](C)[C@@H](C(=O)N[C@@H]([C@@H](C)O)C(=O)N[C@@H](CC(C)C)C(=O)[C@]1(CO1)C)NC(=O)[C@H]([C@@H](C)CC)N(C)C(=O)C [epoxomicin]
Procedure, shortened: as §1

[3] = compound: CCn1c(C(=O)N(C2CC2)C2CC2)cc2c3c(ncn3C)c(Nc3cc(C)n(C)n3)nc21
Procedure, shortened: as §1

[4] = compound: CN(C)CC(=O)Nc1ccc2[nH]c(=O)c3ccccc3c2c1
Procedure, shortened: as §1

rosiglitazone = compound: CN(CCOC1=CC=C(C=C1)C[C@H]2C(=O)NC(=O)S2)C3=CC=CC=N3 (racemic) [rosiglitazone]
Procedure, shortened: as §1

[5] = compound: CN1C2=C(C3=C1C(=O)N(N=C3)CC4=CC(=CC=C4)N)SC(=C2)S(=O)C
Procedure, shortened: as §1

saracatinib = compound: CN1CCN(CCOc2cc(OC3CCOCC3)c3c(Nc4c(Cl)ccc5c4OCO5)ncnc3c2)CC1 [saracatinib]
Procedure, shortened: as §1

sotrastaurin = compound: CN1CCN(c2nc(C3=C(c4c[nH]c5ccccc45)C(=O)NC3=O)c3ccccc3n2)CC1 [sotrastaurin]
Procedure, shortened: as §1

alvocidib = compound: CN1CC[C@H](c2c(O)cc(O)c3c(=O)cc(-c4ccccc4Cl)oc23)[C@H](O)C1 [alvocidib]
Procedure, shortened: as §1

[6] = compound: CNC(=O)C1=CC=CC=C1NC2=NC(=NC=C2Cl)NC3=C(C=C(C=C3)N4CCOCC4)OC
Procedure, shortened: as §1

defactinib = compound: CNC(=O)c1ccc(Nc2ncc(C(F)(F)F)c(NCc3nccnc3N(C)S(C)(=O)=O)n2)cc1 [defactinib]
Procedure, shortened: as §1

rucaparib = compound: CNCc1ccc(-c2[nH]c3cc(F)cc4c3c2CCNC4=O)cc1 [rucaparib]
Procedure, shortened: as §1

[7] = compound: CNc1nc(-c2ccc3c(N)n[nH]c3c2)cc(N2C[C@@H](C(=O)NC3CCCCC3)CC[C@H]2C)n1
Procedure, shortened: as §1

encorafenib = compound: COC(=O)N[C@@H](C)CNc1nccc(-c2cn(C(C)C)nc2-c2cc(Cl)cc(NS(C)(=O)=O)c2F)n1 [encorafenib]
Procedure, shortened: as §1

[8] = compound: COC(=O)[C@H](CCSC)NC(=O)C1=C(C=C(C=C1)NC[C@H](CS)N)C2=CC=CC=C2
Procedure, shortened: as §1

[9] = compound: CCn1cc(-c2ccnc3[nH]c(-c4cccc(CN(C)C)c4)cc23)c(-c2ccc(NC(=O)N(C)C)cc2)n1
Procedure, shortened: as §1

[10] = compound: CN1CCC(CNc2ccc3ncc(-c4cccc(OC(F)(F)F)c4)n3n2)CC1
Procedure, shortened: as §1

Tubastatin A = compound: CN1CCc2c(c3ccccc3n2Cc2ccc(C(=O)NO)cc2)C1 [Tubastatin A]
Procedure, shortened: as §1

Measured: log2 fold change

ERO1B (UniProt Q86YB8)
inactive: [1] 0.197 | volasertib 0.051 | [2] 0.024 | epoxomicin 0.051 | [3] 0.003 | [4] -0.018 | rosiglitazone 0.105 | [5] 0.042 | saracatinib -0.053 | sotrastaurin 0.101 | alvocidib 0.045 | [6] -0.024 | defactinib -0.082 | rucaparib 0.117 | [7] -0.136 | encorafenib 0.17 | [8] 0.164

ERGIC2 (UniProt Q96RQ1)
inactive: [1] -0.041 | volasertib -0.021 | [2] 0.026 | epoxomicin -0.017 | [3] -0.006 | [9] -0.012 | [4] 0.029 | rosiglitazone 0.034 | [5] -0.067 | [10] -0.054 | saracatinib 0.089 | sotrastaurin -0.011 | alvocidib -0.052 | Tubastatin A -0.054 | [6] 0.009 | defactinib -0.04 | rucaparib -0.089 | [7] 0.042 | encorafenib 0.049 | [8] -0.069

EPS15L1 isoform 2 (UniProt Q9UBC2)
inactive: [1] -0.111 | volasertib -0.175 | [2] 0.032 | epoxomicin 0.027 | [3] 0.007 | [9] 0.025 | [4] -0.024 | rosiglitazone 0.034 | [5] -0.012 | [10] -0.012 | saracatinib 0.023 | sotrastaurin -0.05 | alvocidib 0.05 | Tubastatin A 0.014 | [6] 0.085 | defactinib 0.003 | rucaparib -0.003 | [7] -0.114 | encorafenib 0.011 | [8] 0.019

FABP5 (UniProt Q01469)
inactive: [1] -0.011 | volasertib -0.041 | [2] 0.004 | epoxomicin -0.001 | [3] 0.017 | [9] 0.021 | [4] 0.013 | rosiglitazone 0.061 | [5] 0.074 | [10] -0.074 | saracatinib 0.043 | sotrastaurin -0.009 | alvocidib -0.046 | Tubastatin A -0.029 | [6] 0.513 | defactinib -0.055 | rucaparib -0.039 | [7] 0.037 | encorafenib -0.003 | [8] 0.02

EXOC7 (UniProt Q9UPT5)
active: volasertib -0.619 | [10] -0.317
inactive: [1] -0.156 | [2] 0.09 | epoxomicin 0.048 | [9] 0.015 | [4] 0.006 | [5] 0.033 | saracatinib 0.024 | sotrastaurin -0.218 | Tubastatin A 0.029 | [6] -0.04 | defactinib -0.06 | rucaparib -0.01 | [7] -0.077 | encorafenib 0.006 | [8] -0.047

EXOC5 (UniProt O00471)
inactive: [1] -0.236 | [2] 0.093 | epoxomicin 0.041 | [9] 0.022 | [4] 0.066 | [5] 0.054 | [10] -0.215 | saracatinib -0.043 | sotrastaurin -0.209 | Tubastatin A 0.015 | [6] 0.042 | defactinib -0.064 | rucaparib 0.091 | [7] -0.06 | encorafenib 0.083 | [8] -0.071
active: volasertib -0.596

EWSR1 (UniProt H7BY36)
inactive: [1] 0.003 | volasertib -0.015 | [2] -0.02 | epoxomicin 0.255 | [3] -0.062 | [4] -0.05 | rosiglitazone 0.118 | alvocidib -0.126 | [6] -0.141 | defactinib -0.068 | rucaparib 0.045 | encorafenib -0.08 | [8] 0.14

FAAP100 (UniProt Q0VG06)
inactive: [1] -0.01 | volasertib 0.149 | [2] -0.02 | epoxomicin 0.139 | [9] -0.093 | [4] 0.061 | [5] -0.02 | [10] 0.124 | saracatinib 0.044 | sotrastaurin -0.014 | Tubastatin A 0.028 | [6] -0.178 | defactinib -0.044 | rucaparib 0.009 | [7] -0.067 | encorafenib -0.04 | [8] -0.097

FAM122A (UniProt Q96E09)
inactive: [1] -0.042 | volasertib -0.054 | [2] 0.006 | epoxomicin -0.141 | [4] -0.043 | [5] -0.081 | saracatinib -0.005 | sotrastaurin -0.027 | Tubastatin A 0.096 | [6] -0.09 | defactinib -0.018 | rucaparib 0.015 | [7] 0.017 | encorafenib -0.016 | [8] 0.056
active: [9] -0.426 | [10] -0.699

ESYT1 isoform 2 (UniProt Q9BSJ8)
inactive: [1] 0.007 | volasertib -0.37 | [2] 0.099 | epoxomicin 0.026 | [9] 0 | [4] 0.033 | [5] 0.063 | [10] 0.115 | saracatinib -0.148 | sotrastaurin -0.208 | Tubastatin A 0.031 | [6] -0.034 | defactinib -0.043 | rucaparib 0.154 | [7] 0.099 | encorafenib 0.175 | [8] -0.099

ESYT2 (UniProt H7BXI1)
inactive: [1] -0.046 | volasertib 0.045 | [2] 0.006 | epoxomicin -0.13 | [3] -0.187 | [4] 0.003 | rosiglitazone 0.001 | [5] 0.137 | saracatinib 0.052 | sotrastaurin 0.091 | [6] 0.062 | defactinib -0.103 | rucaparib -0.062 | [7] -0.076 | encorafenib 0.066 | [8] -0.009

ERLIN2 (UniProt O94905)
inactive: [1] 0.06 | volasertib -0.057 | [2] 0.054 | epoxomicin -0.034 | [9] 0.01 | [4] -0.051 | [5] 0.096 | [10] 0.008 | saracatinib -0.044 | sotrastaurin -0.097 | Tubastatin A 0 | [6] -0.137 | defactinib 0.026 | rucaparib 0.033 | [7] -0.005 | encorafenib 0.092 | [8] 0.004

ERG28 (UniProt Q9UKR5)
inactive: [1] 0.176 | volasertib -0.09 | [2] -0.064 | epoxomicin 0.092 | [3] 0.021 | [4] 0 | rosiglitazone 0.107 | sotrastaurin 0.061 | alvocidib 0.044 | Tubastatin A 0.025 | [6] 0.036 | defactinib -0.014 | rucaparib -0.138 | encorafenib 0.06 | [8] -0.096

FAM207A (UniProt Q9NSI2)
inactive: [1] -0.085 | volasertib -0.165 | [2] 0.044 | epoxomicin -0.024 | [9] 0.023 | [4] 0.05 | [5] 0.168 | saracatinib 0.005 | sotrastaurin -0.115 | Tubastatin A 0.106 | [6] 0.028 | defactinib 0 | rucaparib 0.064 | [7] 0.007 | encorafenib 0.149 | [8] 0.031
active: [10] 0.418

F5 (UniProt P12259)
inactive: [1] -0.06 | volasertib 0.105 | [2] -0.018 | epoxomicin -0.125 | [9] -0.048 | [4] -0.09 | [5] 0.141 | [10] -0.009 | saracatinib -0.003 | sotrastaurin 0.139 | Tubastatin A -0.076 | [6] 0.133 | defactinib 0.081 | rucaparib -0.079 | [7] -0.068 | encorafenib 0.037 | [8] 0.039

4 successive records already listed, quoted:
ESYT1 isoform 2 (UniProt Q9BSJ8)
inactive: [1] 0.007 | volasertib -0.37 | [2] 0.099 | epoxomicin 0.026 | [9] 0 | [4] 0.033 | [5] 0.063 | [10] 0.115 | saracatinib -0.148 | sotrastaurin -0.208 | Tubastatin A 0.031 | [6] -0.034 | defactinib -0.043 | rucaparib 0.154 | [7] 0.099 | encorafenib 0.175 | [8] -0.099

ESYT2 (UniProt H7BXI1)
inactive: [1] -0.046 | volasertib 0.045 | [2] 0.006 | epoxomicin -0.13 | [3] -0.187 | [4] 0.003 | rosiglitazone 0.001 | [5] 0.137 | saracatinib 0.052 | sotrastaurin 0.091 | [6] 0.062 | defactinib -0.103 | rucaparib -0.062 | [7] -0.076 | encorafenib 0.066 | [8] -0.009

ERLIN2 (UniProt O94905)
inactive: [1] 0.06 | volasertib -0.057 | [2] 0.054 | epoxomicin -0.034 | [9] 0.01 | [4] -0.051 | [5] 0.096 | [10] 0.008 | saracatinib -0.044 | sotrastaurin -0.097 | Tubastatin A 0 | [6] -0.137 | defactinib 0.026 | rucaparib 0.033 | [7] -0.005 | encorafenib 0.092 | [8] 0.004

ERG28 (UniProt Q9UKR5)
inactive: [1] 0.176 | volasertib -0.09 | [2] -0.064 | epoxomicin 0.092 | [3] 0.021 | [4] 0 | rosiglitazone 0.107 | sotrastaurin 0.061 | alvocidib 0.044 | Tubastatin A 0.025 | [6] 0.036 | defactinib -0.014 | rucaparib -0.138 | encorafenib 0.06 | [8] -0.096

(further entries)

FADS1, A0A0A0MR51
inactive: [1] 0.022 | volasertib -0.148 | [2] 0.036 | epoxomicin 0.024 | [9] -0.002 | [4] -0.007 | [5] -0.119 | [10] -0.041 | saracatinib 0.013 | sotrastaurin -0.061 | Tubastatin A 0.15 | [6] 0.112 | defactinib -0.022 | rucaparib 0.005 | [7] 0.027 | encorafenib 0.004 | [8] 0

ESS2 (UniProt Q96DF8)
inactive: [1] -0.025 | [2] -0.077 | epoxomicin -0.012 | [9] 0.036 | [4] -0.032 | [5] 0.024 | [10] -0.012 | saracatinib 0.041 | sotrastaurin -0.025 | Tubastatin A -0.055 | [6] -0.038 | defactinib 0 | rucaparib -0.013 | [7] -0.142 | encorafenib -0.012 | [8] 0.01
active: volasertib -0.245

FAM160B1 (UniProt Q5W0V3)
inactive: [1] -0.007 | volasertib -0.043 | [2] 0.07 | epoxomicin 0 | [9] -0.057 | [4] -0.052 | [5] -0.056 | [10] -0.254 | saracatinib -0.003 | sotrastaurin -0.071 | Tubastatin A 0 | [6] -0.011 | defactinib -0.01 | rucaparib -0.036 | [7] -0.007 | encorafenib -0.015 | [8] 0.072

FAHD2B (UniProt Q6P2I3)
inactive: [1] 0.097 | volasertib -0.142 | [2] -0.032 | epoxomicin 0.04 | [3] -0.101 | rosiglitazone 0.032 | [5] -0.056 | saracatinib 0.177 | alvocidib 0.01 | [6] -0.108 | rucaparib -0.076 | [7] 0.013 | encorafenib -0.071
